Library screening results

From ChEMBL document CHEMBL3988442, “University of Dundee, Small-Polar-MMV Screening Library” (2021).

Each number is a percent effect as filed.
The controls that fix the scale are not given in the record; negative values are as filed.
This is an unselected part of the compounds tested.

Mtb growth Cornell: 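Whole-cell assay for inhibitors of Mycobacterium tuberculosis growth, labelled Cornell in the record; the read-out is not stated. The concentration is filed as 10 mM, unlikely as a test dose, so the dose is not known. Higher means stronger inhibition (inferred from two other growth screens of the library). Of about 53,000 compounds tested this way, about 900 (1.7%) reached 50% or more in at least one test.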
Mtb heat-shock: 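Assay on Mycobacterium tuberculosis, filed only as a heat shock assay from Cornell; the read-out is not stated. The concentration is filed as 10 mM, unlikely as a test dose, so the dose is not known. Direction is inferred from retests: higher values go with stronger inhibition. Of about 69,000 compounds tested this way, about 930 (1.4%) reached 50% or more in at least one test.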

{"compound": "CCn1c(Cn2cncn2)nnc1C1CCN(C(=O)CCSC)CC1", "Mtb growth Cornell": 16.29, "Mtb heat-shock": -3.936}
{"compound": "COCCN1CCCC2(CCN(c3ncnc(C)c3C)C2)C1=O", "stereo": "centres undefined", "Mtb heat-shock": -2.926}
{"compound": "CCOc1ccc(Cl)c(C(=O)N2CCN(CC(C)(C)O)CC2)n1", "Mtb growth Cornell": -28.8, "Mtb heat-shock": -11.25}
{"compound": "O=C(C1CCC1)N1CC[C@H](O)[C@@H]1Cc1cccnc1.O=C(O)C(F)(F)F", "Mtb growth Cornell": 10.64, "Mtb heat-shock": 0.09339}
{"compound": "CC(C)(C)c1nc(CC(=O)N2CCCC(n3cncn3)C2)cs1", "stereo": "centres undefined", "Mtb heat-shock": 5.918}
{"compound": "CN(C)CCN1CCCC12CCN(C(=O)c1ccncc1)CC2.O=C(O)C(F)(F)F.O=C(O)C(F)(F)F", "Mtb growth Cornell": 19.33, "Mtb heat-shock": 6.106}
{"compound": "CCN1CCc2c(CNC(=O)c3nccn3C)cncc2C1.Cl.Cl.Cl", "Mtb growth Cornell": 2.028, "Mtb heat-shock": 5.574}
{"compound": "O=C(c1csc(C2CC2)n1)N1CCCC1Cn1cccn1", "stereo": "centres undefined", "Mtb growth Cornell": -16.36, "Mtb heat-shock": -4.759}
{"compound": "CN(Cc1ccncc1)C(CO)c1cccc(F)c1", "stereo": "centres undefined", "Mtb growth Cornell": 4.85, "Mtb heat-shock": -13.26}
{"compound": "O=C(c1cccnc1N1CCN(Cc2ccoc2)CC1)N1CCCCC1", "Mtb growth Cornell": 32.68, "Mtb heat-shock": 10.14}
{"compound": "[H][C@@]12CCN(C(=O)C3CC3)[C@]1([H])C(=O)N(c1ccc(F)cc1)C(=O)N2", "Mtb heat-shock": -7.079}
{"compound": "CCN(C(=O)NCc1ccc(C)cc1OC)C(C)c1cccnc1", "stereo": "centres undefined", "Mtb growth Cornell": 13.76, "Mtb heat-shock": -15}
{"compound": "CCC(NC(=O)Nc1ccc(OC)c(C)c1)c1noc(C)n1", "stereo": "centres undefined", "Mtb growth Cornell": -4.83, "Mtb heat-shock": 14}
{"compound": "O=C(O)C(F)(F)F.[H][C@]12CCN(C(=O)c3ccncc3F)[C@@]1([H])CCC(COCC1CC1)O2", "stereo": "some centres undefined", "Mtb heat-shock": -24.6}
{"compound": "O=C(Cc1ccccn1)N1CCC2(CC1)CC(Oc1ccccn1)CO2.O=C(O)C(F)(F)F.O=C(O)C(F)(F)F", "stereo": "centres undefined", "Mtb heat-shock": -31.76}
{"compound": "[H][C@]12C[C@H](NC(=O)c3cc(C)no3)[C@@]1([H])CN(S(=O)(=O)c1ccc(C)cc1)C2", "Mtb growth Cornell": -23.05, "Mtb heat-shock": -6.144}
{"compound": "Cc1ccccc1OCCN(C)Cc1noc(CC(C)C)n1", "Mtb heat-shock": -27.19}
{"compound": "Cc1ccc(CNC(=O)N(C)Cc2cnn(C)c2)s1", "Mtb heat-shock": 8.953}
{"compound": "CCCc1nc(C)cc(N2CCNC(C(=O)Nc3ccc(C)nc3)C2)n1", "stereo": "centres undefined", "Mtb growth Cornell": -5.709, "Mtb heat-shock": -29.98}
{"compound": "O=C(NCC1CCOC1)c1ccc(-c2ccccc2)[nH]c1=O", "stereo": "centres undefined", "Mtb growth Cornell": 9.516, "Mtb heat-shock": -16.16}
{"compound": "CC(C)[C@H](NC(=O)NC1CCS(=O)(=O)C1)C(=O)Nc1cccnc1", "stereo": "some centres undefined", "Mtb heat-shock": 0.1078}
{"compound": "CS(=O)(=O)c1cn[nH]c1C1CCCN1C(=O)c1cccnc1", "stereo": "centres undefined", "Mtb growth Cornell": -0.9035, "Mtb heat-shock": -6.415}
{"compound": "CC(C)CN(CC(F)(F)F)S(=O)(=O)c1cc(C(N)=O)n(C)c1", "Mtb growth Cornell": 30.72, "Mtb heat-shock": -22.24}
{"compound": "Cc1nccn1CCC1CCCCN1C(=O)c1ccc2[nH]nnc2c1", "stereo": "centres undefined", "Mtb growth Cornell": 5.708, "Mtb heat-shock": -15.84}
{"compound": "Cc1nc(CN2CCOCC3(CCCN(c4cnccn4)C3)C2)cs1.O=C(O)C(F)(F)F", "stereo": "centres undefined", "Mtb growth Cornell": 3.663, "Mtb heat-shock": -15.95}
{"compound": "COC(=O)CCNC(=O)c1ccc(NC(=O)N(C)CC(C)C)cc1", "Mtb growth Cornell": -30.9, "Mtb heat-shock": 14.99}
{"compound": "CN(C1CCCN(c2ccccn2)C1)S(=O)(=O)N1CCOCC1", "stereo": "centres undefined", "Mtb growth Cornell": -3.389, "Mtb heat-shock": 1.974}

Once more, the final 3:

| Compound | Mtb growth Cornell | Mtb heat-shock |
|---|---|---|
| `Cc1nc(CN2CCOCC3(CCCN(c4cnccn4)C3)C2)cs1.O=C(O)C(F)(F)F` (centres undefined) | 3.663% | -15.95% |
| `COC(=O)CCNC(=O)c1ccc(NC(=O)N(C)CC(C)C)cc1` | -30.9% | 14.99% |
| `CN(C1CCCN(c2ccccn2)C1)S(=O)(=O)N1CCOCC1` (centres undefined) | -3.389% | 1.974% |